The values are deposited in ChEMBL (CHEMBL3988442, “University of Dundee, Small-Polar-MMV Screening Library” (2021)).

By UniProt entry, the sequences of proteins in these tests, tags left out.
UniProt E9BF75, entry or part of it: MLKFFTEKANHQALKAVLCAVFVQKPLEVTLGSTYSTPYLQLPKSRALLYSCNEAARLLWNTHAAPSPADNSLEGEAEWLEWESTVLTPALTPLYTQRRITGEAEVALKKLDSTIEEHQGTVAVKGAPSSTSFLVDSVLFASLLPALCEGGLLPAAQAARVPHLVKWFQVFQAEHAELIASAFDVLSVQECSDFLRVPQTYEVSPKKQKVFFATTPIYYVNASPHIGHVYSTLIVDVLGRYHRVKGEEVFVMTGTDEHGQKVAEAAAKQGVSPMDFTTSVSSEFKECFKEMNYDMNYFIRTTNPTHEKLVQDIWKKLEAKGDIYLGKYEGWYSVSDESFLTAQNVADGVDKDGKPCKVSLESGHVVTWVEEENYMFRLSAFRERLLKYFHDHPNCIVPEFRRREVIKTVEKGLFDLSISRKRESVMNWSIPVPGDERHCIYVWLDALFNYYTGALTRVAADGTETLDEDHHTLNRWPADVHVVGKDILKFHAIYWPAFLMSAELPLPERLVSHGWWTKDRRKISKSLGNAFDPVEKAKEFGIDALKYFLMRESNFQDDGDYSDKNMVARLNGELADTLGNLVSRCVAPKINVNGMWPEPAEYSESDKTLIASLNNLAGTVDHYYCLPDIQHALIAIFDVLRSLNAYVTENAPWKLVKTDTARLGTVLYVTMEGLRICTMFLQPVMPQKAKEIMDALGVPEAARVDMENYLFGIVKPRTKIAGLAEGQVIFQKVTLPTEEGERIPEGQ

Results are percentages, as filed. How 0% and 100% were set is not recorded. Most values in the screen are low, and negative values occur. The compounds are a random part of those screened.

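Primary screen of methionyl-tRNA synthetase; the read-out is not stated. Target: Methionyl-tRNA synthetase (putative), Leishmania donovani (UniProt E9BF75). The test concentration is not given. The values are filed as inhibition. About 68,000 compounds were tested under these conditions; 0.035% (about 24) showed 50% or more at least once.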

compound | inhibition
Cc1cccc2c(CCNC(=O)NCC[S+](C)[O-])c[nH]c12 (centres unmarked) | 8.014%
CCOc1ncccc1NC(=O)N1CCCN(C(=O)OC)CC1 | 9.841%
Cc1ccc(CN(Cc2[nH]cnc2C)C2CC(C)(C)NC(C)(C)C2)o1 | 2.825%
Cc1ccc(CNC(=O)Nc2nncs2)cn1 | 19.32%
O=C(CCCn1cncn1)N1CCC2(CCCN(CC3CC3)C2=O)C1 (centres unmarked) | -0.5495%
Cc1cc(NC(=O)NC(C)(C)c2nc(C)c(C)s2)no1 | 17.01%
O=C(C1CC1)N1CCN2C[C@H](c3ccccc3)[C@@H](CO)[C@H]2C1 | 15.07%
Cc1nnc(SCC(=O)NCc2ccc3c(c2)CCC(=O)N3)n1C | 4.7%
CN(Cc1ccccc1F)C(=O)COC(=O)c1cc(Cl)c[nH]1 | 4.974%
Cc1noc(C(C)C)c1C(=O)NCC(c1ccsc1)N(C)C (centres unmarked) | -1.408%
c1ccc2sc(N3CCCN(c4ncnc5c4CCNC5)CC3)nc2c1 | 29.43%
CC(C)(C)S(=O)(=O)CCNC(=O)c1ccc2cc[nH]c2c1 | 13.58%
Cc1noc(C2CCN(C(=O)CCCNc3ncccn3)CC2)n1 | 18.7%
CN1CCN(Cc2cccnc2)C(=O)C12CCN(S(C)(=O)=O)CC2 | 12.32%
CCCNC(=O)COc1cccc(-c2nc(C(C)C)no2)c1 | 8.609%
CC(Cn1ccnc1)NC(=O)C1(c2ccc(F)cc2)CCCC1 (centres unmarked) | 2.235%
COc1ccc2c(c1)OCC(Cc1ccc(C)nc1N)C2 (centres unmarked) | 7.116%
O=C(c1ccon1)N1CCN(c2ccncc2Cl)CC1 | 23.39%
COc1cccc(Cn2c(C)c(C)oc2=O)c1OC | 8.75%
CC(=O)N[C@@H]1CN(Cc2nnc(-c3ccccc3)o2)C[C@H]1C(C)C | 9.774%
CC(=O)N1CCCC1CCc1ccnc(-c2cncnc2)c1 (centres unmarked) | 12.21%
CC(C#N)CNC(=O)Nc1ccc(Br)cc1 (centres unmarked) | 9.023%
O=C(NCc1ccc(Br)cc1F)C1(O)CCSCC1 | 9.561%
CC(Cn1ccnc1)NC(=O)NCCc1ccc(Cl)s1 (centres unmarked) | 14.53%
COC[C@@H]1CC[C@H]2[C@H](CCN2S(=O)(=O)c2ccc(F)cc2)O1 | 14.16%
CCN(CC)Cc1ccccc1NC(=O)N(C)Cc1ccc(OC)cc1 | 12.37%
O=C(NCCN1CCC(c2cccs2)CC1)c1ccccc1C(F)(F)F | 11.33%
CN1CCC(NC(=O)Nc2ccc(Cl)c(F)c2)C1=O (centres unmarked) | 10.14%
CC(C)CCN1CCCC12Cc1ccccc1CNC2=O (centres unmarked) | 15.43%
CN(CCCc1nccn1C)C(=O)C1COc2ccccc2C1 (centres unmarked) | 7.467%
Cc1cccc(-c2nc(C)nn2CN2CCN(S(C)(=O)=O)CC2)c1 | 11.08%
CNC(=O)COC1COC2(CCN(Cc3ccncc3F)CC2)C1 (centres unmarked) | -71.58%
CC(C)C(O)CNC(=O)Nc1ccc(F)c(Cl)c1 (centres unmarked) | 8.377%
Cc1noc([C@H]2C[C@@H]3CCN(c4nnc(C)s4)C[C@H]3O2)n1 | 16.62%
CCOCc1cccc(S(=O)(=O)Nc2ncc(C)s2)c1 | 4.805%
Cc1cc(CN2C[C@H](OCC3CCOCC3)[C@H]3COC[C@H]32)oc1C | 5.495%
CCC(C)NS(=O)(=O)c1ccc(C(=O)N(C)C2(C#N)CCC2)cc1 (centres unmarked) | 12.68%
CNC(=O)C1CN(C(=O)c2cccnc2)CCN(S(C)(=O)=O)C1 (centres unmarked) | 14.69%
CNC(=O)c1ccc(C2CN(C(=O)c3cncs3)CCO2)nc1 (centres unmarked) | 20.21%
COc1ccc(CN(C)C(=O)NCc2c(C)cc(C)nc2OC)cc1 | 9.143%
O=c1c(CN2CCCCCC2)coc(O)c1CN1CCOCC1 | 21.2%
Cn1cc(N2CC3(COCCN(Cc4ccsc4)C3)OCC2=O)cn1 (centres unmarked) | 3.863%
CN(C)CCC(Nc1nc(N)nc2c1CCNCC2)c1ccccc1 (centres unmarked) | 9.172%
CC1N(CC2CC2)C(=O)COC12CCN(C(=O)c1cnccn1)CC2 (centres unmarked) | 12.32%
CCn1cnnc1C1CCN(C(=O)c2cnc(C3CC3)s2)CC1 | 6.103%
CCN(C(C)=O)C1CCN(c2nccc(C3CCCC3)n2)C1 (centres unmarked) | 14.34%
CN1CCN(Cc2ccccc2CNC(=O)c2ccc(Br)cc2)CC1 | 12.27%
O=C(c1ccco1)N1CCCC2(C1)CN(c1nncs1)CCO2 (centres unmarked) | 20.78%
CCSCCC(=O)NS(=O)(=O)c1ccc2c(c1)OCCO2 | 12.88%
CCN(CC)C1CCN(C(=O)NCc2cccc(-n3cccn3)c2)C1 (centres unmarked) | 5.744%
Cc1csc(CN2C[C@@H]3COC[C@]3(COCC(=O)N(C)C)C2)n1 | 13.2%
CNc1ncc(C(=O)N2CCC(c3ccccc3C(=O)O)C2)cn1 (centres unmarked) | 15.08%
CN(C)c1ncccc1CNC(=O)NCc1ccc(Cl)s1 | 21.59%
O=C(NC1CC1)N1C[C@H]2CN(c3ccccc3)C(=O)[C@H]2C1 | 7.843%
COCCC1(CO)CCCN(Cc2cc(C(F)(F)F)ccc2F)C1 (centres unmarked) | 8.591%
CCc1nnc2n1CCN(C(=O)c1cc3cc(C)ccc3[nH]1)C2 | 16.81%
Cc1nnc(C2Cc3ccccc3CN2Cc2ncc(Cl)n2C)o1 (centres unmarked) | 7.494%
O=C(C1CCOC1)N1C[C@H]2CN(Cc3ccccn3)C[C@H]2C1 (some centres unmarked) | 12.46%
CC(C)CCNC(=O)c1cccnc1Oc1cccnc1 | 10.37%
CCc1cc(=O)[nH]c2nnc(SCC(=O)OC)n12 | 8.374%
Cc1ccc([C@@H]2CN(S(=O)(=O)Cc3ccccc3)C[C@H]2N(C)C)cc1 | 14.95%
CN(C)c1ccc(CNC(=O)NCCc2ccccn2)cn1 | 16.52%
Cc1ccc(C2(O)CCN(C(=O)c3sccc3S(N)(=O)=O)CC2)nc1 | 10.08%
O=C(Cc1ccccc1C(F)(F)F)N1CCC2(CC1)[C@H](O)C[C@@H]2O | 5.376%
Cc1cc(N(C)C)nc(N2CCn3c(C)nnc3C2)n1 | 18.54%
Cc1ncsc1CN1C[C@@H]2COC[C@]2(C(=O)NCc2cccnc2)C1 | 14.84%
CCc1n[nH]c(C2CN(C(=O)c3cncnc3CC)CCO2)n1 (centres unmarked) | 8.309%
Cc1cc(C)cc(N(C)S(=O)(=O)c2cc3c(c(C(=O)O)c2)OCCO3)c1 | 14.75%
CN(C(=O)c1ccccn1)c1nc2c(s1)CCc1c-2cnn1C | 18.15%
COc1c(Cl)cc(C(=O)NCCNc2ncccn2)cc1Cl | 3.519%
CC(=O)Nc1ccc(OCc2noc(C(=O)N3CCCCC3)n2)cc1 | 9.14%
O=C(O)c1cc2c(nc1-c1ccncc1)CCN(C1CCOC1)CC2 (centres unmarked) | 12.77%
O=C(NCc1nnc2n1CCCC2)N(Cc1ccccc1F)C1CC1 | 15.58%
Cn1cc(CN2CCCn3cnc(COCC4CC4)c3C2)cn1 | 9.623%
Cc1ccc(NC2CCN(C(=O)c3cc(C(N)=O)cs3)CC2)nn1 | 13.99%
CC(N(C)Cc1nc2c(cnn2C)c(=O)[nH]1)C(C)(C)C (centres unmarked) | 3.492%
Cc1cccnc1C(Cc1ccsc1)NCc1cnc(N(C)C)nc1 (centres unmarked) | 14.6%
Cc1nn(C)c(C)c1C(=O)N1CCN(C(=O)CCC2CCCCC2)CC1 | 16.77%
CO[C@@H]1CCN(Cc2c(C)noc2C)[C@@H]2CN(Cc3cccnc3)C[C@@H]21 | 14.75%
CN(C)CCCN(Cc1cnn(C)c1)Cc1ccco1 | 11.56%
O=c1c2ccc(Cl)cc2ncn1CCCN1CCCCC1CO (centres unmarked) | 10.21%
COc1c(C2CCCN2C(=O)CCNc2ncccn2)c(C)nn1C (centres unmarked) | 22.16%
Nc1cc2c(nn1)CCN(C(=O)C1CCc3ccccc31)C2 (centres unmarked) | 15.08%
Cc1ccc(S(=O)(=O)NC2CC2)cc1C | 9.735%
COCC1CCN(C(=O)c2cccc(S(=O)(=O)NC3CCCC3)c2)C1 (centres unmarked) | 4.833%
Cc1nc(N(C)C)nc(N(C)CCc2ccncc2)c1C | 10.2%
COC(=O)C1(C)CCN(C(=O)NCCc2c(C)[nH]c3ccccc23)C1 (centres unmarked) | 4.545%
CCS(=O)(=O)N1CCOC2(CCCN(c3ncc(F)cn3)C2)C1 (centres unmarked) | 19.3%
Cc1cc(-c2nn(C)c(Cl)c2CN2CC[C@H](CO)[C@@H](O)C2)no1 | -2.747%
CN(C)CC(=O)N1C[C@@H](Oc2ccccn2)[C@H]2OCCC[C@H]21 | 9.22%

Some entries from above, unchanged:

{"compound": "COc1cccc(Cn2c(C)c(C)oc2=O)c1OC", "inhibition": 8.75}
{"compound": "COc1c(Cl)cc(C(=O)NCCNc2ncccn2)cc1Cl", "inhibition": 3.519}
{"compound": "CC(=O)N1CCCC1CCc1ccnc(-c2cncnc2)c1", "stereo": "centres unmarked", "inhibition": 12.21}
{"compound": "CC(=O)N[C@@H]1CN(Cc2nnc(-c3ccccc3)o2)C[C@H]1C(C)C", "inhibition": 9.774}
{"compound": "Cc1noc(C(C)C)c1C(=O)NCC(c1ccsc1)N(C)C", "stereo": "centres unmarked", "inhibition": -1.408}